pIC50, pKi: −log10 of the molar value.
Tests used:
T98G glioma cell line = experiment: MTS proliferation assay; assay type: cell-based; conditions: Homo sapiens, 48 h, read-out: IC50 values T98G cell line
ERRγ = conditions: cited from earlier work

## CC/C(=C(\c1ccccc1)c1ccc(OCCN(C)C)cc1)c1ccccc1 [Tamoxifen]
T98G glioma cell line
  pIC50: 3.93
ERRγ
  pKi: 6.06

From paper PMC2932438 (Journal of pharmaceutical and biomedical analysis, 2010)
